The values below come from US20200400567A1, “FUSION POLYPEPTIDE” (PEKING UNIVERSITY, priority 2017, published 2020).

This series has as its system human acetylcholine receptor M3R subtype. Nature of the series: GRAB-ACh sensor fluorescence response to ACh, drug perfusion in HEK293T cells. It counts as cell-based. The settings on record: 100 μM ACh perfusion, n=10 cells per group. On the procedure: After DNA encoding specific GRAB sensor was introduced into cells by transfection, fluorescence imaging combined with perfusion experiment was. The imaging capture of HEK293T cells was performed using an Olympus IX81 inverted microscope, 40×NA: 1.35 oil lens, 475/28 excitation light filter, and 515LP emission light filter. The optical signal was collected by a Zyla sCMOS DG-152V-Cle FI camera (Andor), and Lambda DG-4 from Sutter Instuments company was used as a fluorescent light source. The exposure time was set to less than 50 ms and the acquisition frequency was 5 seconds. The entire imaging system was overall controlled by micromanager software.
The detection of the response of the GRAB sensor to the ligand (ΔF/F0) was performed using a drug perfusion method. […]
Fluorescence imaging data was processed using ImageJ software. For the performance of GRAB sensors in HEK293T cells and neurons, the fluorescence of entire cell body was selected as the data processing region. For living Drosophila imaging, fluorescence images on the same Z axis were analyzed by ImageJ software. The change in the fluorescence signal was indicated by its relative difference. The signal of background area without the expression of the sensor was first subtracted from the fluorescence signal, so as to obtain the real expression of the intensity of the fluorescent protein. […]

As for “GRAB-ACh 2.0: GRAB-ACh variant with GG-APSVA peptide linkers, SEQ ID NO: 16”, the signal-to-noise ratio is reported as 724±9.
